Reference: US20180346920A1, “Mutations Conferring Acetyl-Coa Carboxylase (ACC) Inhibiting Herbicide Tolerance in Sorghum” (Chromatin, Inc., priority 2017, published 2018)
Some entries share one result that the patent states for a list of compounds. For at least one compound, name, drawing or mass did not settle the structure.

System: FOP herbicide resistant calli (FP-1 to FP-19)
Test: Resistant calli tested on higher herbicide concentrations in culture medium
Type: cell-based, Sorghum bicolor
Conditions: resistant calli FP-7 to FP16
Description: The herbicide active ingredient molecule of ACC herbicide Assure II (Quizalofop-p-ethyl) was used for screening and selection process. For identifying the optimum concentration for screening, a kill curve experiment with concentrations ranging from 0.05 to 1.0 μM of a.i. molecules were tested. Three week old calli were cut into small pieces of 4-5 mm dia and 25 pieces were tested in three replications for each concentration. Concentrations used were: 0.05, 0.1, 0.2, 0.3, 0.4, 0.5 and 1 μM Quizalofop p-ethyl. As 50% of calli were killed at 0.2 uM concentration, the following selection criteria was followed for entire screening process. Selection process was started with 0.05 um and doubled the concentration for every 3 weeks and the calli surviving on 1.0 uM was considered as resistant calli.
For the chemical mutagenesis, two chemical mutagens Ethyl methanesulfonate (EMS) (0.25 and 0.5%) and Sodium azide (0.5 and 1.0 uM) were used. These mutagens at specified concentration were directly added into the culture media. The calli pieces were first cultured on the media containing the mutagens for 6 and 12 hrs and then transferred to the above mentioned selection procedure. A total of 16 experiments were conducted with varying amount of calli pieces. After 21 to 24 weeks of selection, the surviving calli were considered as herbicide resistant calli. […]

Compound: CCOC(=O)[C@@H](C)Oc1ccc(Oc2cnc3cc(Cl)ccc3n2)cc1 [Quizalofop-p-ethyl]
- concentration up to which resistant calli survived: up to 100 μM
